This note sets out measurements from paper PMC5027613, “A second DNA binding site in human BRCA2 promotes homologous recombination”.

What all share (assay): EMSA
For orientation: A gel shift assay detects complexes by their altered migration in electrophoresis.

For one data set, the target named is T1, BRCA2T2 C279A (human) (UniProt P51587).
T1 sequence (looked up): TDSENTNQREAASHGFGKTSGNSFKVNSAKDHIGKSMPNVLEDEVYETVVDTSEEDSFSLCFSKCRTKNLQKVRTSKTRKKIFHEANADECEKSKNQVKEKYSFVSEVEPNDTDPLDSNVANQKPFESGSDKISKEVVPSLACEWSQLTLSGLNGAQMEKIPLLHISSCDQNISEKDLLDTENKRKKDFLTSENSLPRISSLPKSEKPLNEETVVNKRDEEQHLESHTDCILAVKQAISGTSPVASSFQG
Particulars: EMSA: 25 mM Tris acetate pH 7.5, 1 mM DTT, 1 mM MgCl2, 2 mM CaCl2, 0.2 uM nucleotides DNA, 1 h at 37 C, 6% native PAGE in 1x TAE, recombinant protein, residues 251-500, protein details: N-terminal 2xMBP, 2 NLS.

The target of data set [1] is T2, BRCA2T2 C279A/C315S (human) (UniProt P51587).
T2 sequence (looked up): T1 sequence (looked up) with C65S
Particulars: EMSA: 25 mM Tris acetate pH 7.5, 1 mM DTT, 1 mM MgCl2, 2 mM CaCl2, 0.2 uM nucleotides DNA, 1 h at 37 C, 6% native PAGE in 1x TAE, recombinant protein, residues 251-500, protein details: N-terminal 2xMBP, 2 NLS.

Another data set deals with T3, BRCA2T2 C341S (human) (UniProt P51587).
T3 sequence (looked up): T1 sequence (looked up) with A29C, C91S
The conditions noted are these: EMSA: 25 mM Tris acetate pH 7.5, 1 mM DTT, 1 mM MgCl2, 2 mM CaCl2, 0.2 uM nucleotides DNA, 1 h at 37 C, 6% native PAGE in 1x TAE, recombinant protein, residues 251-500, protein details: N-terminal 2xMBP, 2 NLS.

Data set [2] has as its target BRCA2 full length (human) (UniProt P51587). Particulars: lesser extent than ssDNA, ~100 times lower concentration needed than BRCA2T2; EMSA: 25 mM Tris acetate pH 7.5, 1 mM DTT, 1 mM MgCl2, 2 mM CaCl2, 0.2 uM nucleotides DNA, 1 h at 37 C; 6% native PAGE in 1x TAE; recombinant protein; residues 1-3418; protein details: N-terminal EGFP-MBP; label: 5'-32P on oAC405.
Another data set concerns the target T4, BRCA2T2 C315S (human) (UniProt P51587).
T4 sequence (looked up): T1 sequence (looked up) with A29C, C65S
Particulars: not significantly different from BRCA2T2, substrate dT40 per review file; EMSA: 25 mM Tris acetate pH 7.5, 1 mM DTT, 1 mM MgCl2, 2 mM CaCl2, 0.2 uM nucleotides DNA, 1 h at 37 C; 6% native PAGE in 1x TAE; recombinant protein; residues 251-500; protein details: N-terminal 2xMBP, 2 NLS; label: 5'-32P; single-stranded DNA.

[3] abbreviates: not or very mildly affected, label: 5'-32P on oAC405.
Where [4] appears, read: not significantly different from BRCA2T2, substrate dT40 per review file, label: 5'-32P, single-stranded DNA.

Positions count from the first letter of the chain named. For some assays here: A weaker result is weaker than the reference pair of the same experiment. For some assays here: The exact form of at least one protein or probe is not confirmed. For some assays here: At least one verdict rests on a figure or table, not on a statement of the authors. For some assays here: Protein sequences can lack the tags named with them.

As to “TAATACAAAATAAGTAAATGAATAAACAGAGAAAATAAAG (double strand) [40 bp dsDNA (oAC405/oAC406)]”, the binding result was “binds” in the data set with BRCA2T2 C279A (human) (setting [3]); “binds more weakly” in data set [1] (C315S effect potentiated in double mutants, label: 5'-32P on oAC405); “binds” with BRCA2T2 C341S (human) (setting [3]); “binds more weakly” in data set [2].

On to “TTTTTTTTTTTTTTTTTTTTTTTTTTTTTTTTTTTTTTTT [dT40 (oAC379)]”, for which the binding result (with BRCA2T2 C279A (human) (setting [4]); in data set [1] (setting [4]); in the data set with BRCA2T2 C341S (human) (setting [4]); in the data set with BRCA2T2 C315S (human)) was “binds” throughout.
